Experimental data as given in publication PMC6356155.
Results are given in words; binding and its absence hold for the method and conditions named. In cells and extracts the contact can be indirect. Some results given as binding are weak or reduced against the parent protein; the word gives no strength.

Chains of the proteins cited; added tags and fusions are not shown.
UniProt Q8BUN5: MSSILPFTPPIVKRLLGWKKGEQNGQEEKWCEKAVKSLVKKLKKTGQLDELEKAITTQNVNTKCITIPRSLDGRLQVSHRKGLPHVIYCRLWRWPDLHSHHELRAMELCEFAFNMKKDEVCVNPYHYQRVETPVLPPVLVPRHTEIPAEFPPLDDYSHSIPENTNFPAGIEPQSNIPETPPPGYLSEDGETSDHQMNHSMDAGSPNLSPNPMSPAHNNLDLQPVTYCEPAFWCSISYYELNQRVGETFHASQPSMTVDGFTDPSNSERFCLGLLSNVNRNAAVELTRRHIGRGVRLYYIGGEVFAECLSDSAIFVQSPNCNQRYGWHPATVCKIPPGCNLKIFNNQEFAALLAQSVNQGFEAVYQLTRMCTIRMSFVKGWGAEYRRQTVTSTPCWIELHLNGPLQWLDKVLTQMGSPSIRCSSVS
UniProt P28033: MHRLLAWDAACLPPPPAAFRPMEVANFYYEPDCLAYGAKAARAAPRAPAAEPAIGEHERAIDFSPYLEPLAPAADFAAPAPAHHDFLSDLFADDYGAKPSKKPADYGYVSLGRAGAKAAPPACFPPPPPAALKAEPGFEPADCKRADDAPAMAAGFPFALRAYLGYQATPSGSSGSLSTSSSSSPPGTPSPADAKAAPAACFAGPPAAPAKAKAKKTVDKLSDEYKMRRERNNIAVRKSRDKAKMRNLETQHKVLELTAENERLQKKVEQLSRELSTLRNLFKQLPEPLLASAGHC

Target: Smad3 (mouse (endogenous in GE1)) (UniProt Q8BUN5)
Assay: co-IP; nuclear proteins (15 μg) of GE1 cells, untreated or treated with PgLPS (0.1 μg/mL, 12 and 24 h); precleared with normal rabbit IgG and protein A/G agarose; precipitated with anti-Smad3 or IgG in NP-40 solution (0.5% NP-40, 10 mM Tris pH 7.5, 0.5 M NaCl), 4 °C; blotted with anti-YY1 or anti-C/EBPβ

binding: binds
Substance: CCAAT/enhancer-binding protein β (from UniProt P28033 1-296)
